In patent publication US10842152B2, “Isothiazolo-based bicycles, processes for their preparation and their use as herbicides and/or plant growth regulators” (Bayer CropScience Aktiengesellschaft, priority 2017, dated 2020):
Read-outs that look alike come from different tables or passages of the source. Some entries share one result that the patent states for a list of compounds.

Experiments:
Sphaerotheca fuliginea = assay: In vivo preventive test on Sphaerotheca fuliginea (powdery mildew on cucurbits); details: gherkin, evaluated 15 days after inoculation
Phytophthora infestans = type: in vivo; details: preventive, tomato, evaluated 5 days after inoculation
Puccinia recondita = assay: In vivo preventive test on Puccinia recondita (brown rust on wheat); details: evaluated 11 days after inoculation
Septoria tritici = assay: In vivo preventive test on Septoria tritici (leaf spot on wheat); details: evaluated 24 days after inoculation
Botrytis cinerea = assay: In vivo preventive test on Botrytis cinerea (grey mould); details: 500 ppm of active ingredient, gherkin, evaluated 4 to 5 days after inoculation

| SMILES | efficacy (Puccinia recondita; 500 ppm of active ingredient) | efficacy (Septoria tritici; 500 ppm of active ingredient) | efficacy (Phytophthora infestans; 500 ppm of active ingredient) | further results |
| --- | --- | --- | --- | --- |
| C=Cc1cn(CC2CCCCC2)c(=O)c2snc(N)c12 [Example I-080] | at least 70% |  |  | efficacy (Sphaerotheca fuliginea; 500 ppm of active ingredient): at least 70%; efficacy (Phytophthora infestans; 100 ppm of active ingredient): at least 70% |
| O=C(Nc1nsc2c(=O)n(CC3CCCCC3)cc(Cl)c12)C(F)(F)C(F)(F)F [Example I-081] | at least 70% | at least 70% |  | efficacy (Phytophthora infestans; 100 ppm of active ingredient): at least 70% |
| CCC(=O)Nc1nsc2c(=O)n(CC3CCCCC3)cc(Cl)c12 [Example I-083] |  |  |  | efficacy (Puccinia recondita; 100 ppm of active ingredient): at least 70% |
| COCC(=O)Nc1nsc2c(=O)n(CC3CCCCC3)cc(Cl)c12 [Example I-085] |  |  |  | efficacy (Puccinia recondita; 100 ppm of active ingredient): at least 70% |
| O=C(Nc1nsc2c(=O)n(CC3CCCCC3)cc(Cl)c12)C(F)(F)F [Example I-086] |  |  |  | efficacy (Sphaerotheca fuliginea; 100 ppm of active ingredient): at least 70%; efficacy (Septoria tritici; 100 ppm of active ingredient): at least 70%; efficacy (Puccinia recondita; 100 ppm of active ingredient): at least 70% |
| COCC(=O)Nc1nsc2c(=O)n(CC3CCCCC3)cc(Br)c12 [Example I-087] |  |  |  | efficacy (Puccinia recondita; 100 ppm of active ingredient): at least 70% |
| O=C(Nc1nsc2c(=O)n(CC3CCCCC3)cc(Br)c12)C(F)(F)F [Example I-088] | at least 70% |  |  | efficacy (Sphaerotheca fuliginea; 100 ppm of active ingredient): at least 70% |
| CC(C)C#Cc1cn(CC2CCCCC2)c(=O)c2snc(N)c12 [Example I-090] | at least 70% | at least 70% | at least 70% |  |
| CC(=O)Nc1nsc2c(=O)n(CC3CCCCC3)cc(Br)c12 [Example I-102] |  |  |  | efficacy (Septoria tritici; 100 ppm of active ingredient): at least 70% |
| COCC#Cc1cn(CC2CCCCC2)c(=O)c2snc(N)c12 [Example I-103] | at least 70% |  | at least 70% | efficacy (Septoria tritici; 100 ppm of active ingredient): at least 70% |
| Nc1nsc2c(=O)n(CC3CCCCC3)cc(C#Cc3ccccc3)c12 [Example I-104] |  |  | at least 70% | efficacy (Sphaerotheca fuliginea; 500 ppm of active ingredient): at least 70% |
| COC(C)(C)C#Cc1cn(CC2CCCCC2)c(=O)c2snc(N)c12 [Example I-105] | at least 70% |  | at least 70% | efficacy (Sphaerotheca fuliginea; 100 ppm of active ingredient): at least 70%; efficacy (Septoria tritici; 100 ppm of active ingredient): at least 70% |
| Nc1nsc2c(=O)n(CC3CCCCC3)cc(C3CC3)c12 [Example I-112] |  |  | at least 70% |  |
| C=C(C)c1cn(CC2CCCCC2)c(=O)c2snc(N)c12 [Example I-114] |  |  | at least 70% |  |
| CC#Cc1cn(CC2CCCCC2)c(=O)c2snc(N)c12 [Example I-115] |  |  | at least 70% | efficacy (Septoria tritici; 100 ppm of active ingredient): at least 70%; efficacy (Botrytis cinerea): at least 70% |
| C/C=C/c1cn(CC2CCCCC2)c(=O)c2snc(N)c12 [Example I-118] | at least 70% | at least 70% |  | efficacy (Sphaerotheca fuliginea; 100 ppm of active ingredient): at least 70%; efficacy (Phytophthora infestans; 100 ppm of active ingredient): at least 70% |
| Nc1nsc2c(=O)n(CC3CCCCC3)cc(C3=CCCCC3)c12 [Example I-119] |  | at least 70% | at least 70% | efficacy (Sphaerotheca fuliginea; 500 ppm of active ingredient): at least 70% |
| Nc1nsc2c(=O)n(CC3CCCCC3)cc(C#CCC3CCCCC3)c12 [Example I-122] |  | at least 70% | at least 70% |  |
| Nc1nsc2c(=O)n(CC3CCCCC3)cc(C#CCc3ccccc3)c12 [Example I-123] | at least 70% | at least 70% |  | efficacy (Phytophthora infestans; 100 ppm of active ingredient): at least 70% |
| Nc1nsc2c(=O)n(CC3CCCCC3)cc(-c3ccco3)c12 [Example I-125] | at least 70% |  | at least 70% |  |
| CC(=O)c1cn(CC2CCCCC2)c(=O)c2snc(N)c12 [Example I-130] | at least 70% | at least 70% | at least 70% | efficacy (Sphaerotheca fuliginea; 500 ppm of active ingredient): at least 70% |
| Nc1nsc2c(=O)n(CC3CCCCC3)cc(-c3cccs3)c12 [Example I-131] |  | at least 70% | at least 70% |  |
| Cc1ccc(-c2cn(CC3CCCCC3)c(=O)c3snc(N)c23)o1 [Example I-132] | at least 70% | at least 70% | at least 70% |  |
| C=C(OCC)c1cn(CC2CCCCC2)c(=O)c2snc(N)c12 [Example I-133] | at least 70% | at least 70% |  | efficacy (Sphaerotheca fuliginea; 500 ppm of active ingredient): at least 70%; efficacy (Phytophthora infestans; 100 ppm of active ingredient): at least 70% |
| CO/N=C(/C)c1cn(CC2CCCCC2)c(=O)c2snc(N)c12 [Example I-134] |  |  | at least 70% | efficacy (Sphaerotheca fuliginea; 500 ppm of active ingredient): at least 70% |
| Nc1nsc2c(=O)n(Cc3cc(F)c(F)cc3F)cc(Cl)c12 [Example I-136] |  |  |  | efficacy (Phytophthora infestans; 100 ppm of active ingredient): at least 70%; efficacy (Septoria tritici; 100 ppm of active ingredient): at least 70%; efficacy (Botrytis cinerea): at least 70% |
| CC(C)(C)OC(=O)OC1CN(CC2CCCCC2)C(=O)c2snc(N)c21 (stereo not shown) [Example I-138] |  |  | at least 70% | efficacy (Botrytis cinerea): at least 70% |
| C=CCc1cn(CC2CCCCC2)c(=O)c2snc(N)c12 [Example I-143] | at least 70% |  | at least 70% | efficacy (Botrytis cinerea): at least 70% |
| COC(=O)c1cc(-c2cn(CC3CCCCC3)c(=O)c3snc(N)c23)cs1 [Example I-146] |  |  | at least 70% |  |
